According to PubChem BioAssay AID2810 (NMMLSC, 2010):
The list shows a part of the results. Shown are side measurements of this screen, not its main read-out; they come without a call.

Test: modulators of CD8 T cell-vesicle binding, confirmation, cherry-picked primary hits, two concentrations (AID 2810);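 also: lower values mean blocking of vesicle binding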;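 as to percent response (vesicle binding): ratio of mean FL2 vesicle stain of CD8+ cells to that row's control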
Conditions: 2C CD8+ T cell-vesicle binding, flow cytometry; for double positive events: CD8+/vesicle+ events
[1] = at 15.4 µM, stronger effect = lower value

Compound | double positive events (at 7.7 µM) | double positive events [1] | percent response (vesicle binding) (at 7.7 µM)
C=CC(=O)NCNC(=O)C=C | 13.5% | 9.1% | 520%
O=C(O)c1cccc(N=Nc2c(O)[nH]c(=O)[nH]c2=O)c1 | 10.2% | 37.4% | 318%
COC(=O)C1=C(c2ccc(OCc3ccccc3)cc2)C[C@@H]2CC[C@H]1N2C(=O)NCc1ccc(N(C)C)cc1 | 13.6% | 18.1% | 125%
Cc1cc(C(=O)OCC(=O)Nc2ccc(F)cc2)c(C)n1C1CC1 | 21.1% | 25.7% | 602%
O=[N+]([O-])c1cccc(CN2CCN(Cc3ccc(Cl)cc3)CC2)c1 | 26% | 10.9% | 219%
Cc1ccc(C)c(CN2CCC(n3nnc4cc(F)ccc43)CC2)c1 | 10.3% | 20.1% | 134%
COc1ccc(CNCCc2c(C)[nH]c3ccc(OC(F)(F)F)cc23)c(OC)c1 | 34.4% | 6.7% | 676%
COc1ccc2c3c1OC1[C@H](O)CCC4[C@@H](C2)N(C)CC[C@]314 (stereo not given in full) | 4.6% | 15.2% | 85.6%
COC(=O)C1=C(c2ccc3ccccc3c2)C[C@@H]2CC[C@H]1N2C(=O)NCc1ccc(F)cc1 | 6.8% | 24% | 105%
COC(=O)C1=C(c2ccc(F)cc2OCc2ccccc2)C[C@@H]2CC[C@H]1N2C(=O)NCc1ccc([N+](=O)[O-])cc1 | 15.3% | 19.7% | 109%
CCOC(=O)CC(NC(=O)C(Cc1ccc(N(CCCl)CCCl)cc1)NC(C)=O)C(=O)OCC (stereo not given) | 15% | 18.5% | 273%
Fc1ccccc1CCNCc1ccccc1 | 13.1% | 27.5% | 289%
CNCCc1ccccc1 | 16.3% | 6.8% | 286%
O=C(Nc1ccc(Cl)cc1)O/N=C(\c1ccccc1)c1ccccn1 | 9.3% | 6.7% | 237%
c1cc2c(cc1[C@H]1OC[C@H]3[C@@H]1CO[C@H]3c1ccc3c(c1)OCO3)OCO2 | 26.4% | 30% | 244%

Random excerpt: two entries already listed.
Compound | double positive events (at 7.7 µM) | double positive events [1] | percent response (vesicle binding) (at 7.7 µM)
CNCCc1ccccc1 | 16.3% | 6.8% | 286%
Cc1cc(C(=O)OCC(=O)Nc2ccc(F)cc2)c(C)n1C1CC1 | 21.1% | 25.7% | 602%
